Results taken from patent US4929618A, “Piperdine and piperazine derivatives, and antihistaminic pharmaceutical compositions containing the same” (priority 1988, dated 1990).
The name of at least one read-out is uncertain.

Tested on: histamine-induced death
Test: Protective effect on histamine-induced death
Format: in vivo, guinea pig (Hartley-strain male)
Conditions: oral 1 mg/kg, 2 h before 1.25 mg/kg i.v. histamine hydrochloride; guinea pig
Description: Hartley-strain male guinea pigs weighing 200 to 250 g were employed. After the test animals were starved for 5 hours, the test substance was orally administered at a dose of 1 mg/kg. 2 hours later after administration of the test substance, 1.25 mg/kg of histamine hydrochloride was intravenously administered to induce histamine shock. The potency of the test substance was judged by the percent inhibition of death induced by histamine.

SMILES | Percent inhibition of histamine-induced death at a dose of 1 mg/kg, P.D. (%)
Clc1ccc(C(OC2CCN(CCSc3nc4ccccc4o3)CC2)c2ccccn2)cc1.O=C(O)/C=C/C(=O)O (centres unmarked) [Compound B, 2-[2-[4-[(4-Chlorophenyl)-2-pyridylmethoxy]-1-piperidyl]-ethylthio]benzoxazole fumarate] | 100%
CCOC(=O)CCCN1CCC(OC(c2ccc(Cl)cc2)c2ccccn2)CC1.Cc1ccc(S(=O)(=O)O)cc1 (centres unmarked) [Compound K, Ethyl 4-[4-[(4-chlorophenyl)-2-pyridylmethoxy]-1-piperidyl]butanoate p-toluenesulfonate] | 100%
